Laboratory results as given in PubChem BioAssay AID540256 (National Center for Advancing Translational Sciences (NCATS), 2011).
Where “and” joins values, the source holds several entries; their conditions need not be identical. Equal values may be shown once. Out of some 300,000 compounds screened, about 3,700 (1.2%) were called active. Inconclusive results, whose numbers are uncertain, are shown with a selection of clear calls. Calls follow the shape of the full dose curve; tested in HEK293 cells. Potencies beside an inconclusive call are fits to weak or partial responses and may not hold up.

Assay: qHTS for Inhibitors of binding or entry into cells for Lassa Virus; also: nearly all actives have a fitted effect of over 50% in size
Conditions: Lassa virus pseudotype entry inhibition, cell reporter; series mostly up to 37.9 µM
Potency is read from the fitted curve at half-maximal effect.

Q: For `Cc1cc(C)cc(N2C(N)=NC(N)=NC2c2cccc(Cl)c2)c1` (stereo not given), which Potency is on record?
A: The Potency was inconclusive: 35.5 µM [activator, single point].

Q: For `O=C(NCc1cccs1)C(=O)NCC(c1ccco1)N1CCN(c2ccc(F)cc2)CC1` (stereo not given), which Potency is on record?
A: The Potency was inconclusive: 10 µM [inhibitor, partial curve, poor fit].

Q: With `COc1cc(Nc2nccc(-c3cnn4ncccc34)n2)cc(OC)c1` as the compound, how does the Potency read?
A: The Potency was active: 2.5 µM.

Q: Which Potency does the source give for `N/C(CN1CCCC1=O)=N\OC(=O)c1ccc(Cl)cc1` here?
A: Its Potency is inconclusive: 25.1 µM [activator, single point].

Q: For `NC(=O)C1(N2CCCCC2)CCN(c2nc(-c3ccc(Br)cc3)cs2)CC1`, which Potency is on record?
A: The Potency was “inactive”.

Q: For `N=c1c2c(ncn1CCCO)Oc1ccc3ccccc3c1C2c1ccccc1` (stereo not given), which Potency is on record?
A: Its Potency is “inactive”.

Q: With `Cc1ccc(CCC(=O)Nc2ncc(Cc3cc(Cl)ccc3Cl)s2)o1` as the compound, how does the Potency read?
A: The Potency was inconclusive: 0.92 µM [inhibitor, full curve, poor fit].

Q: Which Potency does the source give for `COc1ccccc1C(=O)Nc1sc(Nc2ccccc2)nc1C(N)=O` here?
A: Its Potency is inconclusive: 35.5 µM [inhibitor, single point].

Q: For `O=C(c1ccc2c(c1)N(Cc1ccccc1)C(=O)c1ccccc1S2(=O)=O)N1CCN(Cc2ccccc2)CC1`, which Potency is on record?
A: The Potency was inconclusive: 1.12 µM [inhibitor, full curve, poor fit].

Q: For `C/C(=N/Nc1nc(-c2ccccc2)cc(-c2ccc(F)cc2)n1)c1cccc(N)c1`, which Potency is on record?
A: The Potency was inconclusive: 35.5 µM [inhibitor, single point].

Q: With `COc1ccc(C(=O)Nc2ccc(N3CCCCC3)cc2)cc1Br` as the compound, how does the Potency read?
A: The Potency was inconclusive: 18.4 µM [activator, single point].

Q: For `CCN(CC)S(=O)(=O)c1ccc(Cl)c(C(=O)Oc2cccc(-c3cnc4ccccc4n3)c2)c1`, which Potency is on record?
A: Its Potency is inconclusive: 10 µM [inhibitor, partial curve, poor fit].

Q: Which Potency does the source give for `N#CC1=C(N)NC(SCc2ccc(F)cc2)=C(C#N)C12CCCCC2` here?
A: Its Potency is inconclusive: 12.6 µM [inhibitor, partial curve, poor fit].

Q: For `Cc1cccc(NC(=O)Cn2c(=O)n(CCCCCC(=O)NCc3ccc4c(c3)OCO4)c(=O)c3sccc32)c1`, which Potency is on record?
A: The Potency was “inactive”.

Q: Which Potency does the source give for `COC(=O)c1ccn(Cc2ccccc2Cl)n1` here?
A: Its Potency is “inactive”.

Q: With `COC(=O)c1scc(-c2ccc(C)cc2)c1S(=O)(=O)Nc1cc(C)ccc1OC` as the compound, how does the Potency read?
A: The Potency was “inactive”.

Q: With `COc1ccc(-c2cc3c(c4c2ccn4C)C2CCC3C2)cc1` (stereo not given) as the compound, how does the Potency read?
A: The Potency was inconclusive: 0.995 µM [inhibitor, full curve, poor fit].

Q: For `COc1ccc(N=N/C(=C\O)C(=O)c2cccs2)cc1`, which Potency is on record?
A: Its Potency is inconclusive: 35.5 µM [inhibitor, single point].

Q: Which Potency does the source give for `COC(=O)CC=C1c2ccccc2[C@@H](OC)[C@@H]1C` here?
A: The Potency was inconclusive: 2.66 µM [activator, single point] and inconclusive: 3 nM [activator, full curve, poor fit].

Q: For `O=C(Nc1cccc(Cl)c1)N(Cc1nc2ccccc2c(=O)[nH]1)C1CCCC1`, which Potency is on record?
A: The Potency was inconclusive: 25.9 µM [inhibitor, partial curve, poor fit].

Q: With `NS(=O)(=O)c1ccc(CCNC(=S)NC(=O)c2ccccc2Br)cc1` as the compound, how does the Potency read?
A: The Potency was inconclusive: 35.5 µM [inhibitor, single point].

Q: For `COc1cccc2sc(N(C)c3ccccc3)nc12`, which Potency is on record?
A: The Potency was inconclusive: 29.1 µM [inhibitor, single point].

Q: For `CCc1cc(-c2[nH]ncc2-c2ccc(OC)cc2)c(O)cc1O`, which Potency is on record?
A: Its Potency is inconclusive: 11.2 µM [inhibitor, partial curve, poor fit].

Q: With `CCOC(=O)c1ccc2[nH]c(C)c(C)c2c1` as the compound, how does the Potency read?
A: The Potency was “inactive”.

Q: For `Cn1cc(/C=C(\C#N)C(=O)Nc2ccccc2O)c2ccccc21`, which Potency is on record?
A: The Potency was inconclusive: 35.5 µM [inhibitor, single point].

Q: With `CN(C)S(=O)(=O)NCCNC(=O)c1cc(OCC(F)(F)F)ccc1OCC(F)(F)F` as the compound, how does the Potency read?
A: Its Potency is inconclusive: 11.2 µM [inhibitor, partial curve].

Q: Which Potency does the source give for `Cc1cccc(-n2ncc3c2CCCC3NC(=O)CCCN2CCCCC2=O)c1C` (stereo not given) here?
A: The Potency was inconclusive: 0.447 µM [inhibitor, full curve, poor fit].

Q: Which Potency does the source give for `O=C(CSc1nnc(-c2ccco2)o1)c1ccc[nH]1` here?
A: Its Potency is inconclusive: 7.08 µM [activator, partial curve, poor fit].

Q: For `COC(=O)Cn1c(=NC(=O)c2ccc(S(=O)(=O)N3CCOCC3)cc2)sc2cc(S(N)(=O)=O)ccc21`, which Potency is on record?
A: Its Potency is inconclusive: 3.55 µM [activator, single point].

Q: With `Cc1ccc(-c2cn3ccc(C)cc3n2)cc1` as the compound, how does the Potency read?
A: Its Potency is inconclusive: 7.94 µM [inhibitor, partial curve, poor fit].

Q: With `O[C@@H]1CN(CC2CCCCC2)[C@@H](c2ccc(Cl)cc2)C[C@@H]1n1cc(-c2ccc(F)cc2)nn1` as the compound, how does the Potency read?
A: Its Potency is inconclusive: 19.9 µM [inhibitor, partial curve, poor fit].

Q: Which Potency does the source give for `Cc1cc(Cl)c(OCCCN2CCCCC2)c(Br)c1` here?
A: The Potency was inconclusive: 25.9 µM [inhibitor, partial curve, poor fit].

Q: Which Potency does the source give for `COc1ccc(S(=O)(=O)N2CCCCC2)cc1NC(=O)Cc1cccs1` here?
A: The Potency was inconclusive: 0.891 µM [inhibitor, full curve, poor fit].

Q: For `COc1cc(C(=O)N2c3ccccc3CCC2C)cc(OC)c1OC` (stereo not given), which Potency is on record?
A: Its Potency is inconclusive: 35.5 µM [inhibitor, single point].

Q: With `O=C(NCc1ccc(F)cc1)C(=O)c1cn(CC(=O)N2CCCC2)c2ccccc12` as the compound, how does the Potency read?
A: The Potency was inconclusive: 10 µM [inhibitor, partial curve, poor fit].

Q: With `CCOC(=O)C1(Cc2ccccc2)CCN(Cc2ccc(C)s2)CC1` as the compound, how does the Potency read?
A: The Potency was “inactive”.

Q: For `CS(=O)(=O)Nc1ccc(-c2ccc3c(NC(=O)C4CC4)n[nH]c3c2)cc1`, which Potency is on record?
A: Its Potency is inconclusive: 0.0014 µM [activator, full curve, poor fit].

Q: Which Potency does the source give for `COc1ccc(C(=O)c2sc(Nc3ccccc3)nc2N)cc1` here?
A: Its Potency is inconclusive: 11.2 µM [inhibitor, partial curve, poor fit].

Q: With `O=C(Cc1ccccc1)NC(=S)Nc1ccc(N2CCCCC2)cc1` as the compound, how does the Potency read?
A: The Potency was inconclusive: 14.6 µM [inhibitor, partial curve, poor fit].

Q: Which Potency does the source give for `CCNS(=O)(=O)c1c(C)cc(N2CCCC2=O)cc1C` here?
A: The Potency was “inactive”.

Q: For `COc1ccc(C2CC(c3ccccc3)=NN2C(=O)c2ccc(Cl)c([N+](=O)[O-])c2)cc1` (stereo not given), which Potency is on record?
A: The Potency was inconclusive: 29.1 µM [inhibitor, single point].

Q: Which Potency does the source give for `COc1ccc(-c2nn3c(-c4ccccc4)nnc3s2)cc1` here?
A: The Potency was “inactive”.

Q: With `CSCCC(NS(=O)(=O)c1ccc(Cl)cc1)C(=O)OCc1cccc(Cl)c1` (stereo not given) as the compound, how does the Potency read?
A: Its Potency is inconclusive: 11.6 µM [inhibitor, partial curve, poor fit].

Q: Which Potency does the source give for `CNC(=O)c1[nH]nc2c1CCc1ccccc1-2` here?
A: Its Potency is inconclusive: 0.316 µM [inhibitor, partial curve, poor fit].

Q: For `c1ccc(-c2ccc(OCCOCCn3cncn3)cc2)cc1`, which Potency is on record?
A: The Potency was “inactive”.

Q: For `C=CCOc1c(Br)cc(CNc2ccc(NC(=O)C(C)C)c(OC)c2)cc1OC`, which Potency is on record?
A: The Potency was inconclusive: 29.1 µM [inhibitor, single point].

Q: Which Potency does the source give for `Cc1ccc(C)c(N2CCN(CCCNC(=O)c3ccc4nc(CCc5ccccc5)oc4c3)CC2)c1` here?
A: The Potency was inconclusive: 35.5 µM [inhibitor, single point].

Q: For `COc1ccc(CCNc2ncnc3sccc23)cc1OC`, which Potency is on record?
A: The Potency was inconclusive: 0.0891 µM [inhibitor, full curve, poor fit].

Q: Which Potency does the source give for `O=C(NCc1cccnc1)C(=O)Nc1ccc2c(c1)OCO2` here?
A: Its Potency is inconclusive: 35.5 µM [inhibitor, single point].

Q: For `Cc1cc(C)nc(N/N=C/c2ccccc2OCc2ccc([N+](=O)[O-])cc2)n1`, which Potency is on record?
A: Its Potency is “inactive”.

Q: For `CCCNC(=O)C1CCC(Cn2c(=O)c3sccc3n(CC(=O)NCc3cccc(OC)c3OC)c2=O)CC1` (stereo not given), which Potency is on record?
A: The Potency was “inactive”.

Q: With `Cc1cc2cc(CN(C(=O)C3CC3)C3CCCC3)c3nnnn3c2cc1C` as the compound, how does the Potency read?
A: Its Potency is inconclusive: 10.3 µM [inhibitor, partial curve, poor fit].

Q: For `Cc1cc(SCC(=O)NC(=O)NCc2ccco2)nc2c(C)cccc12`, which Potency is on record?
A: The Potency was inconclusive: 29.1 µM [inhibitor, partial curve, poor fit].

Q: With `COC(=O)c1ccsc1NS(C)(=O)=O` as the compound, how does the Potency read?
A: The Potency was inconclusive: 0.0628 µM [inhibitor, full curve, poor fit].

Q: Which Potency does the source give for `Clc1ccc(OCCCCCN2CCCC2)c(Br)c1` here?
A: The Potency was inconclusive: 29.1 µM [inhibitor, single point].

Q: With `COCCNC(=O)C(c1ccc(O)cc1)N(Cc1ccco1)C(=O)CCC(=O)Nc1ccccn1` (stereo not given) as the compound, how does the Potency read?
A: Its Potency is “inactive”.

Q: For `CC1CCN(C(=O)COC(=O)c2cc(Cl)c3c(c2)OCO3)CC1`, which Potency is on record?
A: Its Potency is “inactive”.

Q: With `Nc1c(C(=O)Nc2ccccc2F)sc2nc(-c3cccnc3)ccc12` as the compound, how does the Potency read?
A: The Potency was inconclusive: 20 µM [inhibitor, single point].

Q: With `CCCCN(CC)C(=O)C1CCCN(c2ncnc3onc(C)c23)C1` (stereo not given) as the compound, how does the Potency read?
A: The Potency was inconclusive: 1.12 µM [activator, full curve, poor fit].

Q: Which Potency does the source give for `CCN1CCN(C(c2ccc(SC)cc2)c2c(O)cc(C)n(CCOC)c2=O)CC1` (stereo not given) here?
A: Its Potency is inconclusive: 12.6 µM [inhibitor, single point].

Q: For `COCCCNC(=O)c1ccc(Cn2c(=O)c3ccccc3n(Cc3c(C)cc(C)cc3C)c2=O)cc1`, which Potency is on record?
A: The Potency was “inactive”.

Q: With `CCCC1NC(C(=O)O)Cc2c1[nH]c1ccccc21` (stereo not given) as the compound, how does the Potency read?
A: Its Potency is “inactive”.

Q: For `COc1ccccc1NC(=O)C1=C(C)Nc2c(C(=O)Nc3cccc(C)c3)cnn2C1c1ccccc1Cl` (stereo not given), which Potency is on record?
A: The Potency was “inactive”.

Q: With `CCOC(=O)CN(C(=O)CNC(=O)c1ccco1)C(C(=O)NC1CCCCC1)c1cccs1` (stereo not given) as the compound, how does the Potency read?
A: The Potency was inconclusive: 31.6 µM [activator, partial curve, poor fit].

Q: Which Potency does the source give for `COc1ccc(NC(=O)/C=C/c2ccc(Br)o2)cn1` here?
A: Its Potency is “inactive”.
